The source of these data is paper PMC12118852.

No constants are given. Whether binding was seen depends on the method and setting. Binding seen in cells or lysates may run through a third protein. Sequences can lack the tags named with a protein.

The assay addresses T1, Flag-duRIG-I (duck) (UniProt D3TI84).
T1 sequence: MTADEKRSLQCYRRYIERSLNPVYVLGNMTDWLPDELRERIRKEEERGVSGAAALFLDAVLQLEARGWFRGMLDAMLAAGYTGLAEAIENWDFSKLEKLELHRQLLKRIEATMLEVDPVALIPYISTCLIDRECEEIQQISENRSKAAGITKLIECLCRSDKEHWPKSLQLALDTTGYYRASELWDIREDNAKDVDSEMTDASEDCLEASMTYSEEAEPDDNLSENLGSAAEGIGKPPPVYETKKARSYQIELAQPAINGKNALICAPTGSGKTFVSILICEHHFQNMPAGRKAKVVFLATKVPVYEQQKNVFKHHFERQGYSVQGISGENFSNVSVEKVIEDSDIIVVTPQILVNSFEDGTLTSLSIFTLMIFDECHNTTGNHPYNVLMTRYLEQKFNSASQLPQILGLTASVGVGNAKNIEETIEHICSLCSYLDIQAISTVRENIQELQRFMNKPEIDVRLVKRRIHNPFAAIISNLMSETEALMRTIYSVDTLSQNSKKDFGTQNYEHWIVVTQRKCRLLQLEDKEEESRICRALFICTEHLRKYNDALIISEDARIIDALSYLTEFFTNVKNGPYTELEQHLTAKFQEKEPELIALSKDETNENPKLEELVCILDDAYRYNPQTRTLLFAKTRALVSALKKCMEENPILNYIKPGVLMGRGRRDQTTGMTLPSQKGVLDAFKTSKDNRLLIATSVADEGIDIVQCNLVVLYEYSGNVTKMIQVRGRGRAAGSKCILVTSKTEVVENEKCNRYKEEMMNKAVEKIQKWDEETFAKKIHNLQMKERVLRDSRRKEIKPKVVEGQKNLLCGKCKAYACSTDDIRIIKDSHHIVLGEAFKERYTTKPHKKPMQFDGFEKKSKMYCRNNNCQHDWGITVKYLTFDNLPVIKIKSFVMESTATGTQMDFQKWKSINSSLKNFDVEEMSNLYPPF
In words: co-IP; lysates (RIPA buffer) of co-transfected HEK-293T cells; precipitated with anti-Flag antibody overnight at 4°C and protein A/G agarose; western blot.

Take HA-duTRIM14 (duck): the binding entry is on record as “no binding”.
